# Measurements reported in PubChem BioAssay AID1347075 (National Center for Advancing Translational Sciences (NCATS), 2019).
# In all, about 400,000 compounds went through this assay and about 5,500 (1.4%) were called active. This list was built around the results that the source calls inconclusive (neither active nor inactive); the mix of calls is not that of the screen. The call rests on the fitted dose curve; in most records, active means well fitted cell-killing curve with a large enough effect; inconclusive means small, poorly fitted or top-dose-only effect, or effect the other way; inactive means flat fitted curve, though single readings scatter. Potencies of inconclusive entries are doubtful fits and often do not repeat.
# Experiment: qHTS assay for MDR1-selective chemotherapeutics: Primary screen using the parental adenocarcinoma cell KB-3-1; further: nearly all actives have a fitted effect of over 60% in size
# Conditions: KB-3-1 viability, CellTiter-Glo ATP luminescence, 72 h; activity change, negative = cytotoxic: at 46.1 µM (top of the series)
# How it was run: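 72 h, 37 °C compound treatment of KB-3-1 parental cells; CellTiter-Glo added, 10 min, luminescence read. Data corrected against DMSO-only plates and normalized before curve fitting.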
# On the % scale 0 is the no-effect control and ±100 the full control effect; potency means the concentration at half of the fitted maximal effect.
Compound,Potency,"activity change, negative = cytotoxic"
CCOc1ccccc1N1CCN(C(=O)CCCN2C(=O)c3cccc4cccc(c34)C2=O)CC1,inactive,–
COCCN1C=C(C(=O)OC)C(c2ccccc2Cl)C(C(=O)OC)=C1,inactive,–
CCOC(=O)C1=C(COC(=O)CNC(=O)c2cccc(C)c2)NC(=O)NC1C (centres undefined),"inconclusive: 29.1 µM [rising, single point]",–
COc1ccc(OC)c(C(=O)c2ccc(C(=O)Nc3cccc4ccccc34)cc2)c1,"inconclusive: 11.6 µM [cytotoxic, partial curve]",–
Brc1ccc(-c2nc3ccc(Br)cn3c2Cc2ccccc2)cc1,"inconclusive: 29.1 µM [cytotoxic, single point]",–
COCCCNC(=O)Cn1cnc2sc(C)c(S(=O)(=O)N3CC(C)CC(C)C3)c2c1=O (centres undefined),–,inconclusive: 8.63%
Cc1ccc2nc(C3CCCCC3)c(Cc3ccsc3)n2c1,"inconclusive: 20.6 µM [cytotoxic, single point]",–
COc1ccccc1-c1nnc2sc(-c3cc4ccccc4o3)nn12,active: 0.517 µM,–
O=C(NCC(c1ccco1)N1CCN(c2ccccc2)CC1)C(=O)NC1CC1 (centres undefined),"inconclusive: 2.59 µM [rising, partial curve]",–
Cc1ccc(N(C)S(=O)(=O)c2cccc(C(=O)OCC(=O)N3CCCC(C)C3)c2)cc1 (centres undefined),inactive,–
CC(C)c1ccc(-n2c(-c3ccccc3)c[n+]3c2CCc2ccccc2-3)cc1,active: 2.59 µM,–
COc1ccc2[nH]cc(CCN=C(NC(=O)c3ccccc3C)Nc3nc(C)cc(C)n3)c2c1,"inconclusive: 29.1 µM [cytotoxic, single point]",–
COc1ccc(NC(=O)COC(=O)C2COc3ccccc3O2)cc1 (centres undefined),inactive,–
COc1ccccc1NC(=O)C(=O)NCC(c1cccnc1)N1CCc2ccccc2C1 (centres undefined),"inconclusive: 0.082 µM [rising, full curve]",–
COc1cccc(CNC(=O)Cn2c(=O)oc3cc(S(=O)(=O)N4CCCCCC4)ccc32)c1,"inconclusive: 13 µM [cytotoxic, partial curve, poor fit]",–
COc1ccc(-c2nn(-c3ccccc3)cc2/C=C/C(=O)OCC(=O)Nc2ccccc2C#N)cc1,"inconclusive: 29.1 µM [cytotoxic, single point]",–
Cc1c(C(=O)OC(C)C)sc(NC(=O)c2cccnc2)c1C#N,"inconclusive: 32.6 µM [cytotoxic, single point]",–
Cc1cc(C)c(C)c(/C=C(/C#N)C(N)=S)c1C,inactive,–
COc1ccccc1-n1c(=O)c(C#N)c(-c2ccc([N+](=O)[O-])cc2)c2cc(C(=O)c3ccccc3O)cnc21,–,inconclusive: 1.93%

# A section from further up, for reference:
Compound,Potency,"activity change, negative = cytotoxic"
O=C(NCC(c1ccco1)N1CCN(c2ccccc2)CC1)C(=O)NC1CC1 (centres undefined),"inconclusive: 2.59 µM [rising, partial curve]",–
Cc1ccc(N(C)S(=O)(=O)c2cccc(C(=O)OCC(=O)N3CCCC(C)C3)c2)cc1 (centres undefined),inactive,–
